{"source": "patent US20120289432A1", "about": "“PI3K MODULATORS, RHO KINASE MODULATORS AND METHODS OF IDENTIFYING AND USING SAME” (Corning Incorporated, priority 2009, published 2012)", "origin": "cited, not measured here", "system": "PI3Ks including PI3Kα", "settings": "covalent interaction with catalytic lysine in ATP binding site; cited from earlier work", "note": "For at least one compound, name, drawing or mass did not settle the structure.", "data": [{"smiles": "COC[C@H]1OC(=O)c2coc3c2[C@@]1(C)C1=C(C3=O)[C@@H]2CCC(=O)[C@@]2(C)C[C@H]1OC(C)=O", "note": "[wortmannin]", "values": [{"measurement": "concentrations at which PI3Ks are irreversibly inhibited", "result": "low nanomolar"}]}]}
